Binding signal (log2 enrichment (interaction score)) data for 9 sequences are collected here from publication PMC8384837.

Where a chain is given by its changes, count along the chain named. This is one part of the list. For part of these data: At the low end of the ranking the order means little. For part of these data: The exact form of the protein is not confirmed. Some results are limits rather than exact numbers.

Details in all cases: yeast three-hybrid, YBZ-1, SC-Leu-His + 0.5 mM 3-AT, 4 days
Assay [1] has as its target T1, PUM1 PUF domain R1-QFR R2-VFQ R6-SWD S863Q + R864F + Q867R + N899V + Y900F + N1043S + Y1044W + Q1047D (UniProt Q14671).
T1 sequence: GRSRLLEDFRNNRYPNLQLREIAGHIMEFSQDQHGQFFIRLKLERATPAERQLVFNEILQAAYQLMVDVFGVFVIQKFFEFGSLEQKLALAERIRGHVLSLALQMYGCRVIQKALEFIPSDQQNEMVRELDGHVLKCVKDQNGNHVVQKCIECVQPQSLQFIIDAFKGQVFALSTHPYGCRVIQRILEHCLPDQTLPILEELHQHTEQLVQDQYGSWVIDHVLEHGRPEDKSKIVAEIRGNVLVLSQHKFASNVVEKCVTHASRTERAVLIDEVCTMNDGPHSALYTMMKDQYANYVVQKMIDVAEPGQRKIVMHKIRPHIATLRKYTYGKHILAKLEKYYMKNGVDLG

Assay [2] addresses T2, PUM1 PUF domain R1-QFR R2-VFQ R7-NPG S863Q + R864F + Q867R + N899V + Y900F + S1079N + N1080P + E1083G (UniProt Q14671).
T2 sequence: T1 sequence with S216N, W217Y, D220Q, S252N, N253P, E256G

Assay [3] addresses T3, PUM1 PUF domain R2-VFQ R3-THE R4-TFR N899V + Y900F + C935T + R936H + Q939E + N971T + H972F + Q975R (UniProt Q14671).
T3 sequence: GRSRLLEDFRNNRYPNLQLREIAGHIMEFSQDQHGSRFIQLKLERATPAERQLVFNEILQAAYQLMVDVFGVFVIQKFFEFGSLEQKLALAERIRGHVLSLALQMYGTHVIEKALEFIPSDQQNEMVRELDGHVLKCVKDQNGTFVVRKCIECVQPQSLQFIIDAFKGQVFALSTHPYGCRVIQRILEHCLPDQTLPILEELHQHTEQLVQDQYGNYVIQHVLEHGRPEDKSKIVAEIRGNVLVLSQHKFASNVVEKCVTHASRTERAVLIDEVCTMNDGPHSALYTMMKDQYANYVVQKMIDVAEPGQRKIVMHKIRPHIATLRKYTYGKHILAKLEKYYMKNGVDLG

The target in assay [4] is T4, PUM1 PUF domain R3-THE R4-TFR C935T + R936H + Q939E + N971T + H972F + Q975R (UniProt Q14671).
T4 sequence: T3 sequence with V72N, F73Y

The target in assay [5] is T5, PUM1 PUF domain R3-THE R4-TFR R7-NPG C935T + R936H + Q939E + N971T + H972F + Q975R + S1079N + N1080P + E1083G (Homo sapiens) (UniProt Q14671).
T5 sequence: T3 sequence with V72N, F73Y, S252N, N253P, E256G

Assay [6] deals with T6, PUM1 PUF domain R5-PHQ R6-SWD C1007P + R1008H + N1043S + Y1044W + Q1047D (UniProt Q14671).
T6 sequence: T1 sequence with Q36S, F37R, R40Q, V72N, F73Y, C180P, R181H

In assay [7] the target is T7, PUM1 PUF domain R6-SWD R7-NPG N1043S + Y1044W + Q1047D + S1079N + N1080P + E1083G (Homo sapiens) (UniProt Q14671).
T7 sequence: T1 sequence with Q36S, F37R, R40Q, V72N, F73Y, S252N, N253P, E256G

Assay [8] concerns the target T8, PUM1 PUF domain R3-THE R4-TFR R7-NPG C935T + R936H + Q939E + N971T + H972F + Q975R + S1079N + N1080P + E1083G (UniProt Q14671).
T8 sequence: T3 sequence with V72N, F73Y, S252N, N253P, E256G

For the sequence “GGCUAGAACUAGUGGAUCCCCCGGCGCCCGGCGGCUCGAGCCCGGGUAAGUGGAGGUAGUCUGCAUGCCGCCGGGCGCCAUGCCUGCAGGUCGACUCUAGAAAACAUG”, the binding signal (log2 enrichment (interaction score)) is less than -7.81 in assay [1]; -4.94 in assay [2]; -5.71 in assay [3]; -6.89 in assay [4]; less than -1.96 in assay [5].
On to “GGCUAGAACUAGUGGAUCCCCCGGCGCCCGGCGGCUCGAGCCCGGGUAAGUGGACAUCGUCUGCAUGCCGCCGGGCGCCAUGCCUGCAGGUCGACUCUAGAAAACAUG”, for which the binding signal (log2 enrichment (interaction score)) is -5.94 in assay [1]; less than -5.68 in assay [2]; -6.09 in assay [3]; -8.52 in assay [4]; less than -1.61 in assay [5]; -8.15 in assay [6]. In assay [7], the binding signal (log2 enrichment (interaction score)) is -0.73.
Consider “GGCUAGAACUAGUGGAUCCCCCGGCGCCCGGCGGCUCGAGCCCGGGUAAGUAUAGCUAGUCUGCAUGCCGCCGGGCGCCAUGCCUGCAGGUCGACUCUAGAAAACAUG”, for which the binding signal (log2 enrichment (interaction score)) was -5.83 in assay [1]; -4.91 in assay [2]; -6.59 in assay [4]; less than -2.94 in assay [8]; less than -7.35 in assay [6].
Turning to “GGCUAGAACUAGUGGAUCCCCCGGCGCCCGGCGGCUCGAGCCCGGGUAAGGUUACGUAGUCUGCAUGCCGCCGGGCGCCAUGCCUGCAGGUCGACUCUAGAAAACAUG”, the binding signal (log2 enrichment (interaction score)) in assay [1] is -6.33; in assay [4], -6.88; in assay [7], -1.66.
In the case of “GGCUAGAACUAGUGGAUCCCCCGGCGCCCGGCGGCUCGAGCCCGGGUAAGUCUGUAACGUCUGCAUGCCGCCGGGCGCCAUGCCUGCAGGUCGACUCUAGAAAACAUG”, in assay [1], the binding signal (log2 enrichment (interaction score)) was -6.04.
Take “GGCUAGAACUAGUGGAUCCCCCGGCGCCCGGCGGCUCGAGCCCGGGUAAGUGGACGACGUCUGCAUGCCGCCGGGCGCCAUGCCUGCAGGUCGACUCUAGAAAACAUG”: the binding signal (log2 enrichment (interaction score)) is -5.73 in assay [1]; -5.64 in assay [2]; -3.65 in assay [3]; -6.72 in assay [4]; -1.68 in assay [5]; -8.31 in assay [6]. Moreover, the binding signal (log2 enrichment (interaction score)) in assay [7] was -0.35.
For the sequence “GGCUAGAACUAGUGGAUCCCCCGGCGCCCGGCGGCUCGAGCCCGGGUAAGUGUACGACGUCUGCAUGCCGCCGGGCGCCAUGCCUGCAGGUCGACUCUAGAAAACAUG”, the binding signal (log2 enrichment (interaction score)) is -2.41 in assay [1]; -3.64 in assay [2]; -5.36 in assay [3]; -6.97 in assay [4]; -1.72 in assay [5]; -0.84 in assay [7].
In the case of “GGCUAGAACUAGUGGAUCCCCCGGCGCCCGGCGGCUCGAGCCCGGGUAAGUAAUAGUCGUCUGCAUGCCGCCGGGCGCCAUGCCUGCAGGUCGACUCUAGAAAACAUG”, the binding signal (log2 enrichment (interaction score)) in assay [1] is -5.57.
As for “GGCUAGAACUAGUGGAUCCCCCGGCGCCCGGCGGCUCGAGCCCGGGUAAGUGGACGUAGUCUGCAUGCCGCCGGGCGCCAUGCCUGCAGGUCGACUCUAGAAAACAUG”, the binding signal (log2 enrichment (interaction score)) in assay [1] was -6.17; in assay [2], -4.15; in assay [3] it was -3.93; in assay [4] it was -6.03; in assay [5] it was -1.65; in assay [6], -8.82. The binding signal (log2 enrichment (interaction score)) in assay [7] is -0.78.
